{"source": "paper PMC8403975", "about": "(Bioorganic Chemistry, 2021)", "test_system": "voltage-dependent Ca2+ channels (isolated rat ileum)", "assay": "Calcium antagonism: relaxation of K+", "settings": "K+ (80 mM)-induced contractions of rat ileum; mean ± SD, three independent experiments", "data": [{"smiles": "COC(=O)C1=C(C)NC(C)=C(C(=O)OC)C1c1ccccc1[N+](=O)[O-]", "note": "[Nifedipine, reference compound]", "values": [{"measurement": "IC50", "value": "21.00 ± 1.20", "unit": "µg/mL"}]}]}
